# Some entries share one result that the patent states for a list of compounds.
# Assay: Toxicity study in mice: toxicokinetics, plasma AT7519 concentration
# Assay type: in vivo, Male mice (BABL/c)
# Conditions: compound 11 0.062 mmol/kg, compound 12 0.124 mmol/kg
# Protocol: Male mice (BABL/c) of 20 to 22 g were maintained under standard conditions and randomized into groups. […] Doses were calculated and expressed in mmol/kg-body weight, and drug tolerability, pharmacokinetics, and body weight effect were assessed.
# Blood samples were collected at 2 min, 10 min, 1 h, and 4 h. Concentration of T7519 was analyzed in each sample using LC-MS/MS method. The results are summarized in Table 3, and the concentration-time curves are illustrated in FIG. 1.
compound,measurement,value
O=C(NC1CCNCC1)c1nn(COP(=O)([O-])[O-])cc1NC(=O)c1c(Cl)cccc1Cl.[Na+].[Na+] [Compound 11],time to conversion to AT7519 after intravenous injection,< 2 min
